PubChem BioAssay AID1224828 | NIAID | 2016
This is a random part of about 17,000 reagents tested. 762 of all reagents (4.5%) count as active. 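Active calls include both raised and lowered p65 entry, mostly lowered; wells with fewer than 50 cells lack a z-score.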 Raw values are not corrected between plates. Unmarked entries are inactive.

Screen: 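Find genes required for NF-kappaB p65 moving into the nucleus after LPS in mouse macrophages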 (primary screen)
Cells: mouse RAW264.7 G9 macrophage reporter cells (GFP-p65, Tnf promoter-mCherry)
Reagent: siRNA pool against mouse genes, 100 nM
Time to read-out: 2 days siRNA transfection, then 40 min LPS before fixation
Challenge: LPS (Salmonella minnesota R595) at 10 ng/ml
Read-out: 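Microscopy ratio of nuclear to perinuclear-ring GFP-p65 signal, scaled to the plate median; gene score is the average of two replicate robust z-scores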
Reading the numbers: p65 translocation robust z-score: higher = more nuclear NF-kappaB p65 after LPS than the plate median; nuclear/cytoplasmic p65 ratio: higher = more nuclear NF-kappaB p65
Active means: 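Active if robust z is above 3.3 (negative regulators) or below -1.56, the Tlr4 control median (positive regulators); activity score 50 or more; control wells not called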
Meaning of the calls: active = hit (p65 shift raised or lowered); inactive = no clear change

Sppl2c (GeneID 237958) gave p65 translocation robust z-score -0.02; nuclear/cytoplasmic p65 ratio, rep 1 = 1.68; nuclear/cytoplasmic p65 ratio, rep 2 = 1.57; low cell count flag enough cells to score. Depletion of Mmp17 (GeneID 23948) came out at: p65 translocation robust z-score 0.82; nuclear/cytoplasmic p65 ratio, rep 1 = 1.59; nuclear/cytoplasmic p65 ratio, rep 2 = 1.41; low cell count flag enough cells to score. Silencing of Kirrel3 (GeneID 67703) resulted in: p65 translocation robust z-score -2 (active); nuclear/cytoplasmic p65 ratio, rep 1 = 1.25; nuclear/cytoplasmic p65 ratio, rep 2 = 1.1; low cell count flag enough cells to score. Or10ak11 (GeneID 258265) showed p65 translocation robust z-score 2.97; nuclear/cytoplasmic p65 ratio, rep 1 = 2; nuclear/cytoplasmic p65 ratio, rep 2 = 1.86; low cell count flag enough cells to score. For 1700120K04Rik (GeneID 68232) the deposit lists p65 translocation robust z-score -2.3 (active); nuclear/cytoplasmic p65 ratio, rep 1 = 1.2; nuclear/cytoplasmic p65 ratio, rep 2 = 1.12; low cell count flag enough cells to score. With knock-down of Nr5a2 (GeneID 26424), the screen gave p65 translocation robust z-score 0.02; nuclear/cytoplasmic p65 ratio, rep 1 = 1.48; nuclear/cytoplasmic p65 ratio, rep 2 = 1.39; low cell count flag enough cells to score.

Hdhd5 (GeneID 214932) gave p65 translocation robust z-score -0.94; nuclear/cytoplasmic p65 ratio, rep 1 = 1.56; nuclear/cytoplasmic p65 ratio, rep 2 = 1.51; low cell count flag enough cells to score. Depletion of Fgl1 (GeneID 234199) resulted in: p65 translocation robust z-score 1.01; nuclear/cytoplasmic p65 ratio, rep 1 = 1.69; nuclear/cytoplasmic p65 ratio, rep 2 = 1.65; low cell count flag enough cells to score. After knock-down of Or51ac3 (GeneID 259103) the results were p65 translocation robust z-score -0.7; nuclear/cytoplasmic p65 ratio, rep 1 = 1.38; nuclear/cytoplasmic p65 ratio, rep 2 = 1.16; low cell count flag enough cells to score. Mmp19 (GeneID 58223) scored p65 translocation robust z-score -0.47; nuclear/cytoplasmic p65 ratio, rep 1 = 1.43; nuclear/cytoplasmic p65 ratio, rep 2 = 1.24; low cell count flag enough cells to score. For Slc25a38 (GeneID 208638) the deposit lists p65 translocation robust z-score -0.86; nuclear/cytoplasmic p65 ratio, rep 1 = 1.44; nuclear/cytoplasmic p65 ratio, rep 2 = 1.71; low cell count flag enough cells to score. Knock-down of Rabepk (GeneID 227746) gave: p65 translocation robust z-score -0.55; nuclear/cytoplasmic p65 ratio, rep 1 = 1.51; nuclear/cytoplasmic p65 ratio, rep 2 = 1.55; low cell count flag enough cells to score.

After knock-down of Tsc22d3 (GeneID 14605), the screen gave p65 translocation robust z-score -0.9; nuclear/cytoplasmic p65 ratio, rep 1 = 1.36; nuclear/cytoplasmic p65 ratio, rep 2 = 1.23; low cell count flag enough cells to score. Depletion of Tcim (GeneID 69068) came out at: nuclear/cytoplasmic p65 ratio, rep 1 = 1.45; nuclear/cytoplasmic p65 ratio, rep 2 = 1.3; low cell count flag fewer than 50 cells per well; well left out of scoring.
